The nature of the experiment: qHTS Assay for Lipid Storage Modulators in Drosophila S3 Cells.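 On cell number change: cells counted by Cell Tracker Red CMTPX staining in the red channel.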 To be noted: BODIPY lipid droplet fluorescence, 18-24 h; for cell number change: measured here: cell count max response, cells fed with added oleic acid. The method, boiled down:
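Drosophila S3 cells got compounds at several concentrations plus oleic acid (400 uM solution). Laser-scanning cytometry with 488 nm excitation read lipid droplets at 500-530 nm and cells at 575-640 nm. Percent activity was relative to 20 uM Triacsin C.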
In general terms: In qHTS, concentration-response curves come from the screen itself.

[1] abbreviates: measured here: lipid fluorescence (Fed channel) AC50, cells fed with added oleic acid.
Where [2] appears, read: measured here: cell number channel AC50, cells fed with added oleic acid.

Some of the results follow. The main result of the screen is listed elsewhere. These columns were measured beside it and carry no call. The list favours compounds with an active or inconclusive main result. Words in brackets tell the shape of the fitted curve; partial curves, single points and poor fits give uncertain potencies.

As usually defined, the AC50 is the midpoint of the concentration-response curve, whichever way the signal moves. As to `Cn1c2ccccc2c2c(C(=O)N3CCN(c4ccccc4)CC3)cn(C3CCCC3)c(=O)c21`, the cell number change was 6.56%. For the same molecule, under setting [1], the AC50 is 1.3 µM [rising, partial curve].

As for `COc1ccccc1CNCC(=O)Nc1ccc(N2CCOCC2)cc1`, the cell number change stood at 15.3%. The concentration at half-maximal activity (AC50) under setting [1] is 0.58 µM [rising, single point].

In the case of `CC(C)(C)n1cnc2cc(NC(=O)c3ccco3)ccc21`, the cell number change came out at 6.58%. Also, the AC50 under setting [1] is 0.112 µM [falling, full curve, poor fit].

On to `CCC1=NN(C(=O)c2ccc([N+](=O)[O-])cc2)C(O)(c2ccccc2)C1` (centres undefined), for which the cell number change stood at 0.587%. The AC50 under setting [1] was 29.1 µM [falling, single point].

Turning to `NC(=O)NCCCC(NC(=O)c1ccc(C#CC2(O)CCCCC2)cc1)C(=O)O` (centres undefined), the cell number change amounted to 6.51%. The concentration at half-maximal activity (AC50) under setting [2] is 0.00651 µM [falling, full curve, poor fit]. Further, the AC50 under setting [1] is 0.00517 µM [falling, full curve, poor fit].

With `CCC(O)CNC(=O)NC(=C(Cl)Cl)c1ccc(C)c(F)c1` (centres undefined), the cell number change is -12.8%. Besides, under setting [1], the AC50 was 20.6 µM [falling, partial curve, poor fit].

Regarding `Cc1cccc(-c2nc(CN3CCN(C(=O)C4CCCO4)CC3)cs2)c1` (centres undefined), the cell number change is -27.3%. Also, under setting [1], the AC50 is 0.103 µM [falling, full curve, poor fit].

`Cc1cccc(OCCCC(=O)NC2CCCCC2)c1`: the cell number change is -8.2%. Further, the concentration at half-maximal activity (AC50) under setting [1] was 0.58 µM [rising, full curve, poor fit].

Turning to `COc1ccc(C(=O)/C=C/c2ccccc2)c(O)c1`, the cell number change was -5.45%.

In the case of `Cc1c(C(=O)OCc2nc3ccsc3c(=O)[nH]2)oc2ccccc12`, the cell number change turned out to be 30.9%.

Regarding `CCNC(=S)Nc1cc2oc3ccccc3c2cc1OC`, the cell number change came to 25.9%.

Regarding `CCN1CCN(C(=O)C2CCC(=O)N(CCCN3CCCC3=O)C2)CC1` (centres undefined), the AC50 under setting [2] is 0.0517 µM [falling, full curve, poor fit].

For the molecule `O=S(=O)(/N=C(\c1ccccc1)N1CCOCC1)c1cccs1`, the cell number change is -11.9%. The AC50 under setting [1] was 6.51 µM [falling, partial curve, poor fit].

In the case of `CC(C)(C)n1ncc2c(=O)n(CC(=O)NCc3ccco3)cnc21`, the cell number change was -17.3%. The AC50 under setting [1] is 1.64 µM [falling, full curve, poor fit].

With `Cc1ccc(CNC(=O)c2cc3c(=O)n(C)c4ccccc4c3n2C)o1`, the cell number change was -25.2%. Further, the half-maximal activity concentration (AC50) under setting [1] was 7.31 µM [rising, partial curve].

With `C#CCOCCOCCOCCNc1nc(N2CCN(C(=O)[C@H]([C@@H](C)O)n3cc(CCCCN)nn3)CC2)nc(N2CCN(C(=O)[C@H]([C@@H](C)CC)n3cc(CCCCN)nn3)CC2)n1`, the cell number change is -8.09%. In addition, the AC50 under setting [1] is 10.3 µM [rising, partial curve].

For `CCOc1cc(N2CCOCC2)c(OCC)cc1NC(=O)CN1C(=O)NC2(CCCCC2)C1=O`, the cell number change is -1.07%. Under setting [1], the AC50 is 18.4 µM [rising, single point].

Turning to `COc1ccc(CN2CCC(=O)N([C@H](CO)CC(C)C)CC2)cc1`, the cell number change came out at 15%.

Turning to `CCCOC(=O)C1[C@H]2C(=O)N(CC3CCCO3)C[C@]23C=C[C@H]1O3` (some centres undefined), the cell number change amounted to 14.8%. The half-maximal activity concentration (AC50) under setting [2] was 6.51 µM [falling, single point]. In addition, the concentration at half-maximal activity (AC50) under setting [1] is 29.1 µM [falling, single point].

Regarding `Cc1ccc(N(C(C)C(=O)Nc2c(C)n(C)n(-c3ccccc3)c2=O)S(C)(=O)=O)cc1C` (centres undefined), the half-maximal activity concentration (AC50) under setting [2] was 0.0651 µM [falling, full curve].

`CC(=O)N(Cc1cc(=O)[nH]c2ccccc12)c1ccc(C)cc1C`: the cell number change is 25.6%. Moreover, the AC50 under setting [2] is 2.91 µM [rising, partial curve, poor fit]. Further, under setting [1], the AC50 was 0.00517 µM [rising, full curve, poor fit].

As to `O=C1N2CCSC2=NC1(Nc1nccs1)C(F)(F)F` (centres undefined), the cell number change is -16.8%. For the same molecule, the half-maximal activity concentration (AC50) under setting [1] was 20.6 µM [falling, partial curve, poor fit].

With `CCn1c(NCCc2ccc(OC)c(OC)c2)nc2c1c(=O)n(C)c(=O)n2C`, the cell number change turned out to be 1.94%. In addition, the AC50 under setting [1] is 1.84 µM [rising, partial curve].

For `CCN(CC)C(=O)Oc1cc2c(-c3cc4cccc(OC)c4o3)cc(=O)oc2cc1C`, the cell number change stood at 2.59%.

For the molecule `CCN1CCN(C(=S)c2ccc(O)cc2)CC1`, the cell number change is -3.65%. In addition, the AC50 under setting [1] was 2.59 µM [falling, full curve, poor fit].

`O=C(O)CCC(=O)Nc1ccc(N2CCOCC2)cc1`: the cell number change was -18.2%. For the same molecule, under setting [1], the concentration at half-maximal activity (AC50) was 25.9 µM [falling, single point].

Consider `O=S(=O)(N=S(N1CCCCC1)N1CCCCC1)c1ccccc1`, for which the cell number change is -5.52%. For the same molecule, the AC50 under setting [1] is 16.4 µM [rising, single point].

With `COc1ccc(CCCc2nnc(SCC(=O)N/N=C\c3ccc(O)c(OC)c3)o2)cc1C`, the cell number change is -22.2%. Under setting [1], the concentration at half-maximal activity (AC50) is 1.84 µM [falling, partial curve, poor fit].

Take `CC(=O)c1ccc(NC(=O)Cn2cnc(S(=O)(=O)N3CCCC3)c2)cc1`: the cell number change was -19.5%. The AC50 under setting [1] is 29.1 µM [rising, single point].

`CC(C)[C@@H]1CC[C@@H](C)c2c(-c3ccccc3)n[nH]c21`: the cell number change is -31.5%. Further, the AC50 under setting [2] is 29.1 µM [falling, single point]. Moreover, the concentration at half-maximal activity (AC50) under setting [1] is 0.00461 µM [falling, full curve, poor fit].

As for `O=C(Cc1ccc(Cl)cc1)Nc1cccc(-c2nnc(-c3ccco3)o2)c1`, the cell number change worked out at 21.8%.

In the case of `COc1ccccc1C(=O)Nc1ccc(S(=O)(=O)N2CCCC2)cc1`, the cell number change was -22.1%. Further, the AC50 under setting [1] is 16.4 µM [rising, single point].

Regarding `COc1ccccc1N1CCN(C(=O)c2cc3cc(Cl)ccc3[nH]2)CC1`, the AC50 under setting [1] is 29.1 µM [rising, single point].

`COCc1cc(C)n(CC(=O)Nc2cc(C)cc(C)c2)c(=O)c1C#N`: the cell number change is -2.05%. Under setting [1], the half-maximal activity concentration (AC50) is 0.82 µM [falling, full curve, poor fit].

For `Fc1cc(F)c(C2SCCN2C(=S)Nc2cccc(C(F)(F)F)c2)c(F)c1` (centres undefined), the cell number change was -31.1%. Also, under setting [2], the AC50 is 9.2 µM [falling, partial curve, poor fit]. Further, the concentration at half-maximal activity (AC50) under setting [1] is 14.6 µM [falling, partial curve, poor fit].

Take `Cc1cccc(C)c1OCc1nnc(SCC(=O)NCCc2ccccc2)o1`: the cell number change is -21.3%. The AC50 under setting [1] was 32.6 µM [falling, single point].

On to `Cc1c2c(n3c(nc4ccccc43)c1C#N)N(CCCN(C)C)CC2`, for which the cell number change is -6.7%.

As to `Cc1ccsc1C(=O)N/N=C/C=C/c1ccccc1[N+](=O)[O-]`, the AC50 under setting [2] was 0.092 µM [rising, full curve, poor fit].

As to `O=C(Nc1cc([N+](=O)[O-])ccc1N1CCCC1)c1ccccc1`, the cell number change came to 8.92%. For the same molecule, the AC50 under setting [1] was 0.517 µM [rising, single point].

As for `COc1ccc(CN2CCn3ncc(C(=O)Nc4cc(C)cc(C)c4)c3C2=O)cc1`, the cell number change was -32.8%. Moreover, the AC50 under setting [2] is 8.2 µM [falling, partial curve, poor fit]. Moreover, the concentration at half-maximal activity (AC50) under setting [1] was 11.6 µM [falling, partial curve].

For `COC(=O)c1ccc2c(=O)n(Cc3ccc(C(=O)NCCCN4CCC(C)CC4)cc3)c(=S)[nH]c2c1`, the cell number change is -15.6%. The AC50 under setting [1] is 2.59 µM [falling, partial curve, poor fit].

Take `CCC1C/C(=C/c2ccco2)C(=O)/C(=C/c2ccco2)C1` (centres undefined): the cell number change is -9.39%. Also, the half-maximal activity concentration (AC50) under setting [1] is 18.4 µM [falling, partial curve, poor fit].

`CCOC(=O)N1CCN(C(=O)C2CCN(Cc3ccc(O)c(OCC)c3)CC2)CC1`: the cell number change is -12.4%.

`Cc1cc(C)nc(SCC(=O)Nc2ncc(Cc3cccc(Cl)c3Cl)s2)n1`: the half-maximal activity concentration (AC50) under setting [2] was 0.164 µM [rising, full curve, poor fit].

Take `Cc1cccc(NC(=O)C2CCN(C(=O)c3ccc(F)cc3)CC2)n1`: the AC50 under setting [2] was 2.31 µM [rising, single point].

For the molecule `CCn1cc(C(=O)NCCc2ccc(C)cc2)c(=O)c2cc(S(=O)(=O)N(C)C)ccc21`, the cell number change is 53.2%. Moreover, the AC50 under setting [2] is 1.16 µM [rising, full curve].

Regarding `c1ccc(CNc2ncnc3scc(-c4cccs4)c23)nc1`, the cell number change was -14.9%. Also, the AC50 under setting [1] was 29.1 µM [falling, single point].

Take `O=C1CC(NS(=O)(=O)c2cccs2)CN1c1cccc(F)c1` (centres undefined): the cell number change worked out at 20%. Also, the AC50 under setting [1] was 6.51 µM [falling, single point].

As for `CN1C(=O)CC(=O)N(C)c2cc(S(=O)(=O)N(C)Cc3ccccc3)ccc21`, the cell number change was -73.6%. Under setting [2], the half-maximal activity concentration (AC50) is 29.1 µM [falling, single point].

In the case of `O=C1CN(CC(=O)Nc2ccc(Cl)cc2)CCN1`, the AC50 is 1.46 µM [falling, full curve] under setting [2] and 1.84 µM [falling, partial curve] under setting [1].

In the case of `COc1ccc(NC(=O)C2CCN(S(=O)(=O)c3c(C)noc3/C=C/N(C)C)CC2)cc1`, the cell number change was -2.12%.

With `O=C(c1ccc(F)cc1)N1CCN2C(=O)c3ccccc3C12c1ccc(Cl)cc1` (centres undefined), the cell number change is 22.4%.

`CCCC(=O)Nc1cccc(S(=O)(=O)N(C)c2ccccc2)c1`: the cell number change stood at 13.8%. In addition, the AC50 under setting [1] is 20.6 µM [rising, single point].

Take `CC(=O)C1=C(c2ccc(Br)cc2)C(=O)c2ccccc2C1=O`: the cell number change was -31.7%. Also, the AC50 under setting [2] is 13 µM [falling, partial curve]. Also, the AC50 under setting [1] was 14.6 µM [falling, partial curve].

Turning to `COc1cccc(NC(=O)CN(C)C(=O)c2cccc(S(=O)(=O)Nc3ccc(C)cc3)c2)c1`, the cell number change is 18.6%. Also, under setting [1], the AC50 is 16.4 µM [falling, single point].

Take `COc1cc(CN2CCC(C(=O)N3CCN(c4ccccc4F)CC3)CC2)cc(OC)c1OC`: the cell number change is -73.1%. In addition, under setting [2], the AC50 is 29.1 µM [falling, single point]. In addition, under setting [1], the concentration at half-maximal activity (AC50) was 5.8 µM [rising, full curve].

Turning to `O=C(CSc1nnc(-c2ccc(O)cc2)n1Cc1ccco1)N1CCc2ccccc2C1`, the cell number change is -4.45%. Also, under setting [1], the half-maximal activity concentration (AC50) was 6.51 µM [rising, single point].

As to `COc1ccc(C(=O)Nc2c(N)nc(SCC(=O)Nc3ccc(NC(C)=O)cc3)[nH]c2=O)cc1OC`, the cell number change is -11%. Further, the AC50 under setting [1] is 16.4 µM [rising, partial curve].

As for `CCN(c1ccccc1)S(=O)(=O)c1ccc(OC)c(NC(=O)c2cc(Cl)ccn2)c1`, the cell number change worked out at 2.01%.
